We go through 2 substances from publication doi:10.1101/089763.

Test [1] has as its target T1, Flag-tagged HRDE-1 (C. elegans) (UniProt Q09249).
T1 sequence: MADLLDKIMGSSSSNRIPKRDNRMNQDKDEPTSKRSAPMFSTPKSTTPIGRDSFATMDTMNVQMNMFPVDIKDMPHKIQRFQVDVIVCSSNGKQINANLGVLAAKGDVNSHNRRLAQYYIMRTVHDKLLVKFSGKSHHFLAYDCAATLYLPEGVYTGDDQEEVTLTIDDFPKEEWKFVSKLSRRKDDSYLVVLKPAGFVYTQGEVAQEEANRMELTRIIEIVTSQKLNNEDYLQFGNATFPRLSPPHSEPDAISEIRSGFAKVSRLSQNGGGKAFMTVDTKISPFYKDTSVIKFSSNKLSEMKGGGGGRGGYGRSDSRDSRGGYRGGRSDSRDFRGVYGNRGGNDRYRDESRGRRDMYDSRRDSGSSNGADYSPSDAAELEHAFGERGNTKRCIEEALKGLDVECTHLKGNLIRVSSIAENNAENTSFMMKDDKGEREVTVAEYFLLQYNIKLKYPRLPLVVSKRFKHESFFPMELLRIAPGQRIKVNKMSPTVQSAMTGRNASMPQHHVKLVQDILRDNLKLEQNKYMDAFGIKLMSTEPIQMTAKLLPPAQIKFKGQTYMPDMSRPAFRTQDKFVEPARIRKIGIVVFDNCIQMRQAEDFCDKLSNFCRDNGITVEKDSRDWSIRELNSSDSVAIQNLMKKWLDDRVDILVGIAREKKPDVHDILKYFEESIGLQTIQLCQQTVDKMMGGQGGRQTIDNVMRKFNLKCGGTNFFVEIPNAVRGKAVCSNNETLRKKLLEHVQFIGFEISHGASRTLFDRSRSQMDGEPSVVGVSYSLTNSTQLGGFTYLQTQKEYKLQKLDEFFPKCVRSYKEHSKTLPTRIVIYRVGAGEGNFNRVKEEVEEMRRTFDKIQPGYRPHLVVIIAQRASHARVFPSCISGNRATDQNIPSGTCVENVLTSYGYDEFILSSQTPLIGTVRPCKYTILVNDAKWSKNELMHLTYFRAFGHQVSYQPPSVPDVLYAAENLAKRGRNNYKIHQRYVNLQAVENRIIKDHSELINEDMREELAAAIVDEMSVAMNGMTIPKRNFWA
The experiment in a line: co-IP.

Test [2] addresses T2, HRDE-1 (C. elegans (endogenous in whole animals)) (UniProt Q09249).
T2 sequence: T1 sequence
The experiment in a line: co-IP.

These are yes or no findings as the source states them, for the method shown. Binding seen in cells or lysates may run through a third protein. A result given as binding can be weak or reduced; the word gives no strength. For some assays here: Tags and fused reporters may be left off the sequences shown.

Regarding “Aquarius/EMB-4 (C. elegans (endogenous in whole animals))”, the binding entry in test [1] was “binds”.

Consider “Ollas-EMB-4 (C. elegans (endogenous in whole animals))”, for which, in test [2], the binding entry is reported as “binds”.
